Patent US20180085330A1, “Dose Adjustment” (AbbVie Inc., priority 2016, published 2018)

Test: Drug interaction studies: pharmacokinetic parameters of coadministered drug in the presence of glecaprevir/pibrentasvir
Type: in vivo, human
Conditions: atorvastatin 10 mg once daily; GLE/PIB 400/120 mg once daily
Procedure: Drug interaction studies were performed with glecaprevir/pibrentasvir and other drugs that are likely to be coadministered and with drugs commonly used as probes for pharmacokinetic interactions.

- Central Value Ratio (90% CI) AUC: 8.28
- Central Value Ratio (90% CI) Cmax: 22.0
Structure (SMILES): CC(C)c1c(C(=O)Nc2ccccc2)c(-c2ccccc2)c(-c2ccc(F)cc2)n1CC[C@@H](O)C[C@@H](O)CC(=O)O [atorvastatin]
